Values from PubChem BioAssay AID743454 (Peter MacCallum Cancer Centre, 2014)
Assay: 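Search for knock-downs that restore vorinostat killing in resistant colon cancer cells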 (primary screen). Cell system: human HCT116-VR colon cancer cells, selected for vorinostat resistance. Knock-down reagent: siRNA pool against human genes, 40 nM siRNA pool. Duration: vorinostat for 24 h, read-out about 72 h after transfection. Challenge: vorinostat at 2.5 µM final. Measured: 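Two measures, CellTiter-Fluor viability and luminescent caspase 3/7 activity, each as fold change against same-plate mock wells, mean of duplicates, then screen-wide robust z-score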. Reading the numbers: viability robust z-score: higher = more viable cells than screen typical; caspase robust z-score: higher = more caspase 3/7 activity than screen typical. Hit rule: 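Hits are knock-downs in viability class RV1/RV2 or caspase class CA1/CA2, excluding ones that killed cells in the no-drug cell-count arm; hits then retested with single siRNAs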.
The deposit covers about 18,000 reagents; shown is a random part of them. 450 of all reagents (2.5%) were called active. 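Single biological run; no consistent viability z cut-off exists, so the class columns, not z-scores, define the calls.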 No sequences are given here.

| gene knocked down | viability hit class | caspase hit class | viability robust z-score | caspase robust z-score | Outcome |
| --- | --- | --- | --- | --- | --- |
| PSG8 | no change | no change | -0.39 | 2.7 | inactive |
| AOAH | no change | no change | 0.32 | -0.22 | inactive |
| MESP1 | no change | no change | 1.06 | 1.27 | inactive |
| SLC35A1 | no change | no change | -0.3 | 0.1 | inactive |
| PCDHA8 | no change | no change | 1.73 | -0.34 | inactive |
| FBXO45 | no change | no change | 0.26 | 0.31 | inactive |
| PIWIL3 | no change | no change | 0.41 | -0.03 | inactive |
| PARP15 | no change | no change | -0.32 | 4.13 | inactive |
| KLF17 | no change | no change | -0.42 | 0.38 | inactive |
| PNMA2 | no change | no change | -0.92 | -0.76 | inactive |
| IFT74 | no change | no change | 0.23 | -0.76 | inactive |
| SMR3B | no change | CA2 (caspase activation) | -1.77 | 5.56 | active |
| FAM117A | no change | no change | -1.22 | -0.4 | inactive |
| HIF3A | no change | no change | -0.12 | 1.59 | inactive |
| CHP1 | no change | no change | 0.53 | -0.26 | inactive |
| CCAR1 | no change | no change | 0.01 | -0.98 | inactive |
| OR4S1 | no change | no change | -0.5 | -0.64 | inactive |
| KCTD10 | no change | no change | 1.02 | 0.08 | inactive |
| SKA2 | no change | no change | 1.62 | -0.68 | inactive |
| REEP5 | no change | no change | -0.33 | -0.9 | inactive |
| HSPG2 | no change | no change | 0.57 | -0.75 | inactive |
| TNNC2 | no change | no change | 0.24 | -0.8 | inactive |
| CSNK1A1 | no change | no change | -0.68 | 0.26 | inactive |
| GNG2 | no change | no change | 0.87 | -0.21 | inactive |
| FZR1 | no change | no change | 0.4 | 0.7 | inactive |
| NUPR1 | no change | no change | -0.08 | 2.69 | inactive |
| OR10A6 | no change | no change | -1.27 | 3.5 | inactive |
| SOSTDC1 | no change | no change | 0.05 | 0.11 | inactive |
| FBXL6 | no change | no change | -0.24 | 0.24 | inactive |
| U2AF1L4 | no change | no change | 0.08 | -0.42 | inactive |
| DSC2 | no change | no change | 0.66 | 0.42 | inactive |
| GDI1 | no change | no change | 0.28 | 0.63 | inactive |
| MAP7D1 | no change | no change | 0.23 | -0.62 | inactive |
| AIF1L | no change | no change | -0.79 | 0.14 | inactive |
| DDX53 | no change | no change | -0.22 | 1.08 | inactive |
| GJA5 | no change | no change | 0.64 | 0.18 | inactive |
| MRPS24 | no change | no change | -0.06 | -0.2 | inactive |
| LRRC42 | no change | no change | -0.08 | 0.86 | inactive |
| LRRC37B | no change | no change | 0.21 | 0.4 | inactive |
| NTSR1 | no change | no change | -1.2 | 3.08 | inactive |
| ZFHX3 | no change | no change | 1.88 | -0.29 | inactive |
| CUTA | no change | no change | 0.54 | -0.56 | inactive |
| HOXA11 | no change | no change | -0.57 | 0.54 | inactive |
| HADH | no change | no change | -0.38 | 0.42 | inactive |
| RELT | no change | no change | 0.42 | -0.31 | inactive |
| KRTAP10-7 | no change | no change | -0.71 | -0.82 | inactive |
| UTP14A | no change | no change | -2.24 | 0.18 | inactive |
| DGKQ | no change | no change | -0.7 | -0.88 | inactive |
| POLDIP3 | no change | no change | 0.82 | 0.29 | inactive |
| REG1A | no change | no change | 0.54 | -0.12 | inactive |
| ARHGEF9 | no change | no change | 0.88 | -0.94 | inactive |
| THBS4 | no change | no change | 1.14 | -1.09 | inactive |
| OR1C1 | no change | no change | 0.45 | -0.11 | inactive |
| SCGB1D4 | no change | no change | 0.92 | -0.36 | inactive |
| SREBF2 | no change | no change | 0.42 | 0.44 | inactive |
| OR2A25 | no change | no change | -0.19 | -0.78 | inactive |
| DCPH1 | no change | no change | 0 | 1.54 | inactive |

No new results follow: an excerpt of the list.
| gene knocked down | viability hit class | caspase hit class | viability robust z-score | caspase robust z-score | Outcome |
| --- | --- | --- | --- | --- | --- |
| MAP7D1 | no change | no change | 0.23 | -0.62 | inactive |
| AIF1L | no change | no change | -0.79 | 0.14 | inactive |
| DDX53 | no change | no change | -0.22 | 1.08 | inactive |
| GJA5 | no change | no change | 0.64 | 0.18 | inactive |
| MRPS24 | no change | no change | -0.06 | -0.2 | inactive |
| LRRC42 | no change | no change | -0.08 | 0.86 | inactive |
| LRRC37B | no change | no change | 0.21 | 0.4 | inactive |
| NTSR1 | no change | no change | -1.2 | 3.08 | inactive |
